These are yes or no findings as the source states them, for the method shown. Binding seen in cells or lysates may run through a third protein. Some results given as binding are weak or reduced against the parent protein; the word gives no strength. Tags and fused reporters may be left off the sequences shown.

Our source for the binding values is article PMC4830966, “Molecular basis of the STIL coiled coil oligomerization explains its requirement for de-novo formation of centrosomes in mammalian cells” (Scientific Reports, 2016).

The assay concerns the target T1, Flag-STIL (WT full-length STIL protein) (human) (UniProt Q15468).
T1 sequence: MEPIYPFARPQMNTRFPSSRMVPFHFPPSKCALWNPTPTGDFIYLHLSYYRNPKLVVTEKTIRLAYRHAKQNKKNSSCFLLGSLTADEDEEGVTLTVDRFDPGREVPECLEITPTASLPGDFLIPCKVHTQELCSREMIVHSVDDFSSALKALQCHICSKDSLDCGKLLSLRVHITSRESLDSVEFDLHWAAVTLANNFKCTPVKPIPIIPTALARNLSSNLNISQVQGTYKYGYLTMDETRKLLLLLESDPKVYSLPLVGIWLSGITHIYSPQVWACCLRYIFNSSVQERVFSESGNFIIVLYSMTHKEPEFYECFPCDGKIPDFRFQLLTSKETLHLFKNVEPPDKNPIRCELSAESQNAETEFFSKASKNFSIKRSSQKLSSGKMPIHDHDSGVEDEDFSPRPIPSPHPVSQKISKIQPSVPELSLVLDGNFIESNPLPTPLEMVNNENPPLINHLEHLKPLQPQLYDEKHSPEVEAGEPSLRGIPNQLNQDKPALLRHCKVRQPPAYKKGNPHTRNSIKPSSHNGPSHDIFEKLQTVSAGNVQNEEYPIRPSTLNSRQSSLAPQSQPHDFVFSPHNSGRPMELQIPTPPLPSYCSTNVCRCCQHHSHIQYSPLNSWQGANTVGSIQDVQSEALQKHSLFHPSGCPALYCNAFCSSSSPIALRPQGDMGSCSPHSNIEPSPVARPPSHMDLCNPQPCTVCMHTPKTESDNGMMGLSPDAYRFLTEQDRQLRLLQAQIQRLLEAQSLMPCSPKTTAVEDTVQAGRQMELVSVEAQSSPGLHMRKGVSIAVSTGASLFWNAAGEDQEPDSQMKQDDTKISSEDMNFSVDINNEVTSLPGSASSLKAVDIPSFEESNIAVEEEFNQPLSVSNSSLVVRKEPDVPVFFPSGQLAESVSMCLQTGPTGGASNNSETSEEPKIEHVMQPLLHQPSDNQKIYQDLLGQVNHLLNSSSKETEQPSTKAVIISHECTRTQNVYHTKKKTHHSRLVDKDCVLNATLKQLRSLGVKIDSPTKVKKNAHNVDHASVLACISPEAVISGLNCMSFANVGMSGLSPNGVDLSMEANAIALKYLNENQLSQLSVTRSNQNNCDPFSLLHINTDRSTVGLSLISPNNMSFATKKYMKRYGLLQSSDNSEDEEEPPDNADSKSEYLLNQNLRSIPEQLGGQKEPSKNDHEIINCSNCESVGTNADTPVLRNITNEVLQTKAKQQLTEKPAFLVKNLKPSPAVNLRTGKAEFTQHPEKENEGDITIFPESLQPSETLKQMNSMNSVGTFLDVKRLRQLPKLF
Description: co-IP; Flag-tagged STIL constructs co-expressed with WT Strep-STIL in HEK293T; anti-Flag M2 agarose beads, 4 °C overnight; hypotonic gentle lysis buffer (5 mM Tris-HCl pH 7.5, 10 mM NaCl, 2 mM EDTA, 0.5% Triton-X100); immunoblot against Strep.

B1: Strep-STIL (Strep-tagged WT STIL) (protein, UniProt Q15468 1-1287)
chain: MEPIYPFARPQMNTRFPSSRMVPFHFPPSKCALWNPTPTGDFIYLHLSYYRNPKLVVTEKTIRLAYRHAKQNKKNSSCFLLGSLTADEDEEGVTLTVDRFDPGREVPECLEITPTASLPGDFLIPCKVHTQELCSREMIVHSVDDFSSALKALQCHICSKDSLDCGKLLSLRVHITSRESLDSVEFDLHWAAVTLANNFKCTPVKPIPIIPTALARNLSSNLNISQVQGTYKYGYLTMDETRKLLLLLESDPKVYSLPLVGIWLSGITHIYSPQVWACCLRYIFNSSVQERVFSESGNFIIVLYSMTHKEPEFYECFPCDGKIPDFRFQLLTSKETLHLFKNVEPPDKNPIRCELSAESQNAETEFFSKASKNFSIKRSSQKLSSGKMPIHDHDSGVEDEDFSPRPIPSPHPVSQKISKIQPSVPELSLVLDGNFIESNPLPTPLEMVNNENPPLINHLEHLKPLQPQLYDEKHSPEVEAGEPSLRGIPNQLNQDKPALLRHCKVRQPPAYKKGNPHTRNSIKPSSHNGPSHDIFEKLQTVSAGNVQNEEYPIRPSTLNSRQSSLAPQSQPHDFVFSPHNSGRPMELQIPTPPLPSYCSTNVCRCCQHHSHIQYSPLNSWQGANTVGSIQDVQSEALQKHSLFHPSGCPALYCNAFCSSSSPIALRPQGDMGSCSPHSNIEPSPVARPPSHMDLCNPQPCTVCMHTPKTESDNGMMGLSPDAYRFLTEQDRQLRLLQAQIQRLLEAQSLMPCSPKTTAVEDTVQAGRQMELVSVEAQSSPGLHMRKGVSIAVSTGASLFWNAAGEDQEPDSQMKQDDTKISSEDMNFSVDINNEVTSLPGSASSLKAVDIPSFEESNIAVEEEFNQPLSVSNSSLVVRKEPDVPVFFPSGQLAESVSMCLQTGPTGGASNNSETSEEPKIEHVMQPLLHQPSDNQKIYQDLLGQVNHLLNSSSKETEQPSTKAVIISHECTRTQNVYHTKKKTHHSRLVDKDCVLNATLKQLRSLGVKIDSPTKVKKNAHNVDHASVLACISPEAVISGLNCMSFANVGMSGLSPNGVDLSMEANAIALKYLNENQLSQLSVTRSNQNNCDPFSLLHINTDRSTVGLSLISPNNMSFATKKYMKRYGLLQSSDNSEDEEEPPDNADSKSEYLLNQNLRSIPEQLGGQKEPSKNDHEIINCSNCESVGTNADTPVLRNITNEVLQTKAKQQLTEKPAFLVKNLKPSPAVNLRTGKAEFTQHPEKENEGDITIFPESLQPSETLKQMNSMNSVGTFLDVKRLRQLPKLF
In the case of B1, the binding result was “binds”.
